Our source for the survivor count and T/C values is PubChem BioAssay AID296 (DTP/NCI, 2004).

The list does not hold the whole screen: it is rich in T/C values a quarter to a half above the control, in often repeated tests (any T/C) and in doses without a T/C. Further doses and runs are listed elsewhere. T/C: endpoint of the treated group in % of that of the vehicle group. Schedule codes are those of the source, read here as Q, the interval in days (D) or hours (H), X, the number of doses. Some doses were run more than once; their values stand side by side, smallest first. Some T/C values carry the count of animals alive at the toxicity check (mostly the fifth day); where none is given, no animal had died by that day. Some doses have a count of surviving animals in place of a T/C: the source files T/C as zero there, which appears to mark a toxic dose or a test without result, not a measured value. Counts of survivors are from the toxicity check (mostly the fifth day) where no day follows; animals may have died later.

The test system of this assay is MX-1 breast xenograft, nude mice, tumor weight T/C. As to the kind of experiment: NCI In Vivo Anticancer Drug Screen. Data for tumor model Human Mammary Carcinoma MX-1 Xenograft (intrarenal inoculation) in NU/NU Swiss (nude) mice. The conditions noted are these: T/C endpoint: mean tumor weight change, higher T/C = larger tumour; for T/C: evaluated on day 11. In outline:
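Antitumour effect measured in vivo against vehicle controls, expressed as T/C.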

The mark [1] stands for this setting: dose: 100.0 mg/kg/injection, schedule: Q04DX003 (sc), vehicle: saline.
Where [2] appears, read: dose: 600.0 mg/kg/injection, schedule: Q04DX003 (sc), vehicle: saline with Tween-80.
[3] abbreviates: dose: 100.0 mg/kg/injection, schedule: Q01DX010 (sc), vehicle: saline with Tween-80.
[4] abbreviates: dose: 400.0 mg/kg/injection, schedule: Q04DX003 (sc), vehicle: saline with Tween-80.
Setting [5] is: dose: 25.0 mg/kg/injection, schedule: Q01DX010 (sc), vehicle: saline with Tween-80.
Where [6] appears, read: dose: 50.0 mg/kg/injection, schedule: Q01DX010 (sc), vehicle: saline with Tween-80.
Setting [7] is: dose: 200.0 mg/kg/injection, schedule: Q04DX003 (sc), vehicle: suspension in saline.
[8] abbreviates: dose: 300.0 mg/kg/injection, schedule: Q04DX003 (sc), vehicle: saline with Tween-80.
Where [9] appears, read: dose: 100.0 mg/kg/injection, schedule: Q04DX003 (sc), vehicle: suspension in saline.
Setting [10] is: dose: 1200.0 mg/kg/injection, schedule: Q04DX003 (sc), vehicle: saline with Tween-80.

As for `O=C(O)c1ccc(C(=O)O)c(C(=O)O)c1.[NH-]C1CCCCC1[NH-].[Pt+2]`, the survivor count by setting is: (dose: 12.5 mg/kg/injection, schedule: Q01DX010 (sc), vehicle: sodium bicarbonate) 0 of 5 on day 11 and 1 of 6 on day 11; (dose: 25.0 mg/kg/injection, schedule: Q01DX010 (sc), vehicle: sodium bicarbonate) 0 of 6 on day 11. Consider `O=CC(CO)CC(C=O)n1cnc2c(=O)[nH]cnc21` (stereo not given), for which, where the note is “dose: 1200.0 mg/kg/injection, schedule: Q04DX003 (ip), vehicle: saline”, the survivor count is on record as 0 of 6 on day 11. Take `O=c1[nH]cnc2c1ccn2C1OC(CO)C(O)C1O` (stereo not given): the survivor count reads like this: (dose: 50.0 mg/kg/injection, schedule: Q04DX003 (sc), vehicle: saline) 1 of 6 on day 11; under setting [1], 0 of 6 on day 11. In the case of `FC(F)(F)c1nc2nc(Cl)c(Cl)nc2[nH]1`, under setting [2], the survivor count is on record as 0 of 6 on day 11. In the case of `O=C(O)C1CC(c2ccccc2)=NN1c1ccccc1` (stereo not given), for the setting “dose: 100.0 mg/kg/injection, schedule: Q04DX003 (sc), vehicle: water”, the T/C was 144 % of control. Moreover, for the setting “dose: 800.0 mg/kg/injection, schedule: Q04DX003 (sc), vehicle: water”, the survivor count is on record as 0 of 6 on day 11. With `C[CH2][Pb]([CH2]C)([CH2]C)[O]C(=O)COc1ccccc1`, the survivor count (dose: 36.0 mg/kg/injection, schedule: Q04DX003 (sc), vehicle: saline with Tween-80) is listed as 2 of 6 on day 11. For `O=C1C(NCCO)=C(N2CC2)C(=O)C(NCCO)=C1N1CC1`, the survivor count is 1 of 6 on day 11 (dose: 6.0 mg/kg/injection, schedule: Q04DX003 (sc), vehicle: saline) and 0 of 6 on day 11 (dose: 8.0 mg/kg/injection, schedule: Q04DX003 (sc), vehicle: saline). Regarding `Cc1ccccc1N(CC1CO1)CC1CO1` (stereo not given), the survivor count (dose: 1600.0 mg/kg/injection, schedule: Q01DX010 (sc), vehicle: suspension in saline) is recorded as 0 of 3 on day 11. On to `Cc1ccccc1SSc1ccccc1C`, for which the T/C under setting [3] was 134 % of control.

In the case of `COC1C(O)CC(OC2CC(OC3CC(O[C@@H]4C(=O)c5c(cc6cc(OC7CC(OC8CC(O)C(O)C(C)O8)C(O)C(C)O7)c(C)c(O)c6c5O)C[C@H]4[C@H](OC)C(=O)[C@@H](O)[C@@H](C)O)OC(C)C3O)OC(C)C2O)OC1C` (stereo not given in full), the survivor count by setting is: (dose: 1.5 mg/kg/injection, schedule: Q01DX010 (sc), vehicle: saline) 0 of 3 on day 11; (dose: 6.0 mg/kg/injection, schedule: Q01DX010 (sc), vehicle: saline) 1 of 3 on day 11.

For the molecule `CC1C=NNC1=O` (stereo not given), for the setting “dose: 200.0 mg/kg/injection, schedule: Q01DX010 (sc), vehicle: saline with Tween-80”, the T/C was 134 % of control. As for `c1ccc([P+](c2ccccc2)(c2ccccc2)c2ccccc2)cc1`, the survivor count (dose: 40.0 mg/kg/injection, schedule: Q04DX003 (sc), vehicle: saline) was 0 of 6 on day 11. With `Cc1ccc(N)c(N)c1`, the T/C under setting [4] was 130 % of control. Also, the survivor count (dose: 1600.0 mg/kg/injection, schedule: Q04DX003 (sc), vehicle: saline with Tween-80) is recorded as 0 of 6 on day 11. For `O=c1nc(Oc2ccccc2)nc2ncccn12`, the survivor count (dose: 400.0 mg/kg/injection, schedule: Q01DX010 (sc), vehicle: saline with Tween-80) is 1 of 3 on day 11 and the survivor count (dose: 800.0 mg/kg/injection, schedule: Q01DX010 (sc), vehicle: saline with Tween-80) is reported as 0 of 3 on day 11.

In the case of `CN(C)CCN1C(=O)c2cccc3cc([N+](=O)[O-])cc(c23)C1=O`, the survivor count (dose: 72.0 mg/kg/injection, schedule: Q04DX003 (sc), vehicle: saline with Tween-80) is recorded as 3 of 6 on day 11.

Regarding `CN(N=O)C(N)=O`, the survivor count is on record as 1 of 2 on day 11 under setting [5]; 0 of 3 on day 11 under setting [6]; 0 of 3 on day 11 under setting [3]; 0 of 6 on day 11 (dose: 200.0 mg/kg/injection, schedule: Q04DX003 (sc), vehicle: saline with Tween-80); 0 of 3 on day 11 under setting [7]; 0 of 6 on day 11 under setting [4]. On to `O=NN(CCCl)C(=O)NC1CCC(=O)NC1=O` (stereo not given), for which, for the setting “dose: 1.56 mg/kg/injection, schedule: Q01DX010 (sc), vehicle: saline with Tween-80”, the T/C was 142 % of control. Also, the survivor count runs as follows: (dose: 12.5 mg/kg/injection, schedule: Q01DX010 (sc), vehicle: saline with Tween-80) 0 of 3 on day 11; under setting [5], 0 of 3 on day 11; under setting [6], 0 of 3 on day 11. In the case of `C=CS(=O)(=O)c1ccccc1`, the survivor count (dose: 200.0 mg/kg/injection, schedule: Q01DX010 (sc), vehicle: saline) is on record as 1 of 2 on day 11. Regarding `CC1=C[S+](c2ccccc2)c2cccc3cc4ccccc4c1c23` (stereo not given), for the setting “dose: 32.0 mg/kg/injection, schedule: Q04DX003 (sc), vehicle: saline with Tween-80”, the T/C was 125 % of control [4 of 6 alive on day 11]. The survivor count (dose: 64.0 mg/kg/injection, schedule: Q04DX003 (sc), vehicle: saline with Tween-80) is 2 of 6 on day 11. In the case of `Nc1nc2c(C(=O)N3CCCC3)nnn2c2ccccc12`, the survivor count under setting [8] is reported as 0 of 6 on day 11. Take `O=C(O)C1CC1.[Ag]`: the survivor count under setting [2] is on record as 1 of 6 on day 11. For the molecule `CC1(C)N=C(N)N=C(N)N1c1ccc(CCCCc2ccc(S(=O)(=O)F)cc2Cl)c(Cl)c1`, the survivor count (dose: 100.0 mg/kg/injection, schedule: Q01DX010 (sc), vehicle: suspension in saline) is on record as 0 of 3 on day 11. For `c1cc2c(c(CC3CO3)c1CC1CO1)OCCOCCOCCOCCO2` (stereo not given), where the note is “dose: 600.0 mg/kg/injection, schedule: Q04DX003 (ip), vehicle: saline + alcohol”, the survivor count is 0 of 6 on day 11. Consider `O=c1[nH]cc(F)c(=O)[nH]1`, for which the T/C is 81, 83, 102, 104 % of control (dose: 25.0 mg/kg/injection, schedule: Q04DX003 (sc), vehicle: suspension in saline); 41, 47, 66, 69 % of control (dose: 50.0 mg/kg/injection, schedule: Q04DX003 (sc), vehicle: suspension in saline); 44 [4 of 6 alive on day 11] and 61 % of control under setting [9]. In addition, the survivor count is 0 of 3 on day 11 and 1 of 3 on day 11 (dose: 40.0 mg/kg/injection, schedule: Q01DX010 (sc), vehicle: saline); 0 of 3 on day 11 (dose: 80.0 mg/kg/injection, schedule: Q01DX010 (sc), vehicle: saline); 0 of 6 on day 11 and 1 of 6 on day 11 under setting [1]; 0 of 6 on day 11 and 2 of 6 on day 11 under setting [9]; 0 of 6 on day 11 and 1 of 6 on day 11 (dose: 200.0 mg/kg/injection, schedule: Q04DX003 (sc), vehicle: saline); 0 of 6 on day 11 and 3 of 6 on day 11 under setting [7]. Regarding `BrC1c2cccc3cccc(c23)C1Br` (stereo not given), under setting [10], the T/C is 136 % of control.

With `N=c1c(C(=O)OCc2ccccc2)ncc(CCl)n1O`, the T/C is 142 % of control under setting [8] and 146 % of control under setting [10]. `NC(=O)Oc1cccc(OC(N)=O)c1`: the T/C (dose: 150.0 mg/kg/injection, schedule: Q04DX003 (sc), vehicle: water) is 138 % of control. For `NC(=O)CC(N)C(=O)O` (stereo not given), the T/C (dose: 800.0 mg/kg/injection, schedule: Q04DX003 (sc), vehicle: saline) was 139 % of control. Take `COC(=O)C(Cl)(Cl)N=Nc1c(Cl)cc(Cl)c(C)c1Cl`: the T/C under setting [10] was 127 % of control. Moreover, the survivor count (dose: 2400.0 mg/kg/injection, schedule: Q04DX003 (sc), vehicle: saline with Tween-80) is on record as 1 of 6 on day 11.
